# The list shows a part of the results. The main result of the screen is listed elsewhere. These columns were measured beside it and carry no call. Compounds called inactive in the main read-out are mostly missing here. The note in brackets gives the kind of curve behind each potency; many fits are weak.
# Assay: qHTS Assay for Lipid Storage Modulators in Drosophila S3 Cells;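 for cell number change: cells counted by Cell Tracker Red CMTPX staining in the red channel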
# Details: BODIPY lipid droplet fluorescence, 18-24 h; for cell number change: measured here: cell count max response, cells fed with added oleic acid
# How it was run: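 Laser-scanning cytometry quantifies lipid droplet accumulation (500–530 nm total intensity; droplet/cell object ratio) in oleic acid-fed (400 uM added) Drosophila S3 cells treated with a concentration series. 20 uM Triacsin C defined 100% inhibition.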
# [1] = measured here: lipid fluorescence (Fed channel) AC50, cells fed with added oleic acid
# [2] = measured here: cell number channel AC50, cells fed with added oleic acid
smiles,measurement,setting,value
CCOC(=O)N1CCN(CC(O)COc2ccccc2C(C)CC)CC1 (centres undefined),AC50,[1],"4.11 µM [falling, partial curve]"
Cc1cccc(NC(=O)c2cc(NC(=O)c3ccco3)ccc2Cl)n1,AC50,[1],"0.58 µM [rising, single point]"
CC(=O)NC(C)C(=O)OCC(=O)Nc1ccc(Br)cc1 (centres undefined),cell number change,,-162%
same,AC50,[2],"25.9 µM [falling, partial curve]"
CCC(=O)c1cn(CC(=O)Nc2cccc(C)c2)c2ccccc12,cell number change,,10.9%
same,AC50,[1],"29.1 µM [rising, single point]"
O=c1[nH]c(=O)n(CCOc2ccc(Cl)cc2)cc1Br,cell number change,,4.31%
same,AC50,[1],"0.206 µM [rising, full curve]"
COc1cc(Br)c(C(C)NC(=O)c2ccccc2)cc1OC (centres undefined),cell number change,,105%
same,AC50,[2],"29.1 µM [rising, single point]"
same,AC50,[1],"29.1 µM [rising, partial curve]"
COC(=O)c1cccc(NC(=O)Cn2cnc3c2c(=O)n(C)c(=O)n3C)c1,cell number change,,14.5%
same,AC50,[1],"6.51 µM [rising, single point]"
CCCc1cc(=O)oc2c(C)c(OC(C)C(=O)NCc3ccccn3)ccc12 (centres undefined),cell number change,,1.19%
same,AC50,[1],"0.164 µM [falling, full curve, poor fit]"
Cc1ccc(OCC(=O)NCc2n[nH]c(=O)c3ccccc23)cc1,cell number change,,3.96%
same,AC50,[2],"0.00517 µM [falling, full curve, poor fit]"
CCCn1c(N)c(C(=O)COC(=O)COc2ccc(Cl)c(C)c2)c(=O)n(C)c1=O,cell number change,,24.1%
CCOc1ccc2oc(C(=O)OCC(=O)NC3CC3)c(C)c2c1,cell number change,,12.9%
Clc1ccc(Cn2c(CN3CCCC3)nc3ccccc32)cc1,cell number change,,16.4%
same,AC50,[1],"0.0206 µM [rising, full curve, poor fit]"
O=c1oc2ccccc2c(O)c1C=Nc1cccnc1,cell number change,,4.39%
same,AC50,[1],"0.231 µM [rising, full curve, poor fit]"
Cc1ccccc1NC(=O)CSC1=C(C#N)C(c2ccsc2)CC(=O)N1 (centres undefined),cell number change,,11.3%
same,AC50,[1],"2.06 µM [rising, partial curve]"
CCN(CC)CCOc1c(C)cccc1Cl,cell number change,,-61.5%
same,AC50,[2],"18.4 µM [falling, partial curve]"
O=C(Nc1ccccc1)c1ccc(=O)n(Cc2cccc(Cl)c2)c1,cell number change,,-52.9%
same,AC50,[2],"5.8 µM [falling, partial curve]"
same,AC50,[1],"5.17 µM [falling, partial curve]"
CCOC(=O)c1c(NC(=O)CCN2CCOCC2)sc(C)c1-c1ccccc1,cell number change,,-18%
Cc1c(C(=O)N2CCCC2)oc2c1-c1[nH]ncc1CC2,cell number change,,6.95%
same,AC50,[1],"9.2 µM [rising, single point]"
CCN(CC)CCNC(=S)Nc1ccc2nc(N3CCN(C)CC3)cc(C)c2c1,cell number change,,22.7%
same,AC50,[1],"3.66 µM [rising, partial curve, poor fit]"
CC(C)OC(=O)CSc1nnc(-c2ccccn2)n1C,cell number change,,-1.71%
same,AC50,[1],"0.00461 µM [falling, full curve, poor fit]"
C/C(=N\NC(=O)c1ccn(C)n1)c1cccc(NC(=O)c2ccc(C)s2)c1,cell number change,,30.5%
same,AC50,[2],"5.8 µM [rising, partial curve]"
same,AC50,[1],"5.17 µM [rising, partial curve]"
O=C(C1CCCN(S(=O)(=O)Cc2ccccc2)C1)N1CCC(Cc2ccccc2)CC1 (centres undefined),cell number change,,80.9%
same,AC50,[2],"18.4 µM [rising, single point]"
same,AC50,[1],"29.1 µM [rising, single point]"
CCC(C(=O)N1CCC(C(N)=O)CC1)n1nc(C)n2c(cc3occc32)c1=O (centres undefined),cell number change,,-0.382%
same,AC50,[1],"18.4 µM [rising, single point]"
CC1CCCN(C(=O)COC(=O)c2ccc(=O)n(Cc3ccccc3)n2)C1 (centres undefined),cell number change,,-2.99%
same,AC50,[1],"16.4 µM [rising, single point]"
N#CC1=C(N)Oc2n[nH]c(-c3cccs3)c2C1c1ccoc1 (centres undefined),cell number change,,-1.09%
same,AC50,[1],"8.2 µM [rising, partial curve, poor fit]"
CC(=O)N1c2ccccc2S(=O)(=O)c2ccccc21,cell number change,,-11%
same,AC50,[1],"10.3 µM [falling, partial curve, poor fit]"
CCn1ncc([C@@H]2C[C@H]3CN(Cc4ccccc4C)C(=O)[C@]34CCCN24)c1C,cell number change,,3.37%
same,AC50,[1],"6.51 µM [falling, single point]"
CCc1ccc(S(=O)(=O)/N=C2\C=C(NS(=O)(=O)c3ccccc3)C(=O)c3ccccc32)cc1,cell number change,,5.56%
O=C(Nc1cccc(NC(=O)c2ccc(F)cc2)c1)c1ccc(F)cc1,cell number change,,112%
same,AC50,[2],"25.9 µM [rising, partial curve]"
same,AC50,[1],"29.1 µM [falling, single point]"
Cc1cc(C)cc(NC(=O)C2CCCN(c3nccc(C)n3)C2)c1 (centres undefined),AC50,[1],"0.58 µM [rising, single point]"
O=C(Nc1ccc(C(=O)NCCCN2CCN(c3ccccc3)CC2)cc1)C1=CSCCO1,cell number change,,3.4%
same,AC50,[2],"0.651 µM [rising, partial curve, poor fit]"
Cc1ccc(N(CC(=O)NC(C)c2ccccc2)S(=O)(=O)c2c(C)n[nH]c2C)cc1 (centres undefined),cell number change,,22.1%
COc1ccc(CCNC(=O)CCCCCN2C(=O)[C@@H]3Cc4ccccc4CN3C2=O)cc1OC,AC50,[1],"5.17 µM [rising, single point]"
CCc1ccc([C@@H]2CC=C(C(=O)O)[C@H](c3ccc(Cl)cc3)N2S(=O)(=O)c2ccc(C)cc2)cc1,cell number change,,-30.4%
same,AC50,[2],"29.1 µM [falling, single point]"
O=C(CCNS(=O)(=O)c1ccc2c(c1)CCC(=O)N2)Nc1ccc(F)c(F)c1,cell number change,,11.2%
same,AC50,[1],"1.84 µM [falling, single point]"
COc1ccccc1-n1c(-c2ccco2)n[nH]c1=S,cell number change,,8.51%
O=C(NCCc1ccccc1)C(c1ccc(F)cc1)N(C(=O)c1csnn1)C1CC1 (centres undefined),cell number change,,-9.52%
same,AC50,[1],"3.26 µM [rising, single point]"
CSc1ccccc1NC(=O)CSc1nnc(Cc2ccccc2)o1,cell number change,,7.69%
C/C(=N\NC(=O)Cc1ccccc1)c1ccc(Br)s1,cell number change,,-14.2%
same,AC50,[1],"29.1 µM [falling, single point]"
Cc1ccc(C)c(OCc2cc(C(=O)N3CC[C@@H]4CCCC[C@H]4C3)no2)c1,cell number change,,-40.4%
same,AC50,[2],"18.4 µM [falling, single point]"

# Reformatted with tabs: entries from further up
smiles	measurement	setting	value
C/C(=N\NC(=O)c1ccn(C)n1)c1cccc(NC(=O)c2ccc(C)s2)c1	AC50	[1]	5.17 µM [rising, partial curve]
O=C(C1CCCN(S(=O)(=O)Cc2ccccc2)C1)N1CCC(Cc2ccccc2)CC1 (centres undefined)	cell number change		80.9%
same	AC50	[2]	18.4 µM [rising, single point]
